From article PMC7819943, “Rice protein-binding microarrays: a tool to detect cis-acting elements near promoter regions in rice” come the findings set out here.

This is one part of the list.

The experiment has as its target T1, OsSMF1 (Oryza sativa, UniProt Q6ZLB0 1-436).
T1 sequence: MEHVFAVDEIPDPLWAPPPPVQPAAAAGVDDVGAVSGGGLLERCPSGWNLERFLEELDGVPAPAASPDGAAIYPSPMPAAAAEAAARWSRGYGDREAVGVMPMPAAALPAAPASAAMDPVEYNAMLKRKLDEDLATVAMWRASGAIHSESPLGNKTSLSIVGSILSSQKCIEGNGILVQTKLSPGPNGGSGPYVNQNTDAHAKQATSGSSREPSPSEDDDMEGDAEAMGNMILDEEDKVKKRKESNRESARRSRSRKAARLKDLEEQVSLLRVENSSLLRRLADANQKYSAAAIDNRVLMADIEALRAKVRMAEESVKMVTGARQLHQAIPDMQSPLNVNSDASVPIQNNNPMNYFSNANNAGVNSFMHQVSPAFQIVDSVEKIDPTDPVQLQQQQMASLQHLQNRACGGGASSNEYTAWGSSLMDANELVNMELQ
Briefly: protein-binding microarray (RPBM); PBS, 2% BSA, 51.3 ng/ul salmon testes DNA, 50 uM zinc acetate, 200 nM TF, 25 C, 1 h; high values mean tight binding. To be noted: protein: recombinant; tags: N-terminal polyhistidine and DsRed monomer fusion (pET32a); chain copies: 2; label: CyDye5-dUTP incorporated in the synthesized complementary strand; 3' TTTTT single-stranded linker to array surface; dsDNA, one strand shown. A digest of the protocol:
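Polyhistidine-tagged DsRed fusions of transcription factors, joined at the N-terminus, were expressed in E. coli BL21-CodonPlus and isolated on Ni–NTA. They were incubated at 200 nM for 1 h at 25 °C on a custom Agilent array, double-stranded and BSA-blocked, in PBS with 2% BSA, salmon testes DNA and 50 µM zinc acetate. The binding signal is per-feature fluorescence intensity (arbitrary units) read on an Axon 4000B scanner after washing.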
As to “GTATCCATTCCTGCAAATCCAAGTTGGCAATTCCGAGGGCCGGAGTCACCTAGTGCAG”, the binding signal was 3340 fluorescence intensity (a.u.). As for “ACGTTGTTTACTCACCTTTTCCGTACGTGTCAAAGCTACTCGGAGTCACCTAGTGCAG”, the binding signal is 7170 fluorescence intensity (a.u.).

Take “TTGGCCACCTCCACCTCACTCGCATGAAGGCTAAGTGAGCCGGAGTCACCTAGTGCAG”: the binding signal was 4160 fluorescence intensity (a.u.).

For the sequence “GCCTCTCCTCAAGCGGTGGAGAGCGCGGACGTGGACGTGCCGGAGTCACCTAGTGCAG”, the binding signal is 6520 fluorescence intensity (a.u.). The figure for “ACAAGAGCCAGCGCGGCGTGTGTGCGCGATTTCTCTCTTCCGGAGTCACCTAGTGCAG” is 3210 fluorescence intensity (a.u.); for “GTCAGCAGCCTCCAGTGGCGTCATCCAATGGAGAAGCCCCCGGAGTCACCTAGTGCAG” it is 4450 fluorescence intensity (a.u.). “CTAGCAGTGGCGGTGGCTCGCGGAGACGGTGGCTGGTGGTCGGAGTCACCTAGTGCAG”: the binding signal is 28800 fluorescence intensity (a.u.). “CTTCCAAGCCCTCCACCTCCTCGTCCCCTGGTACGGGTGTCGGAGTCACCTAGTGCAG”: the binding signal was 3220 fluorescence intensity (a.u.). Consider “AGGAAACACGGGAAAGAAAGAGGTGATGACGTGGATAGTCCGGAGTCACCTAGTGCAG”, for which the binding signal was 23300 fluorescence intensity (a.u.). Turning to “CACCACCCTAAATGGAATAAGAAAATTCTTATTTGTGAATCGGAGTCACCTAGTGCAG”, the binding signal was 3440 fluorescence intensity (a.u.). Take “AATATGTATCAAGGGACCATGACATATCTAACCTCGATCTCGGAGTCACCTAGTGCAG”: the binding signal was 3700 fluorescence intensity (a.u.). Turning to “GCGGGCCTCGCGGCCACATCCATCAAACCACGGGAAAGATCGGAGTCACCTAGTGCAG”, the binding signal is 3460 fluorescence intensity (a.u.). With “ACTGTTTAGTAGATGTTTGGTGTTGAGCTGGATGTGGAGACGGAGTCACCTAGTGCAG”, the binding signal is 3810 fluorescence intensity (a.u.). The figure for “CGGTGGGTGAGCACGGCTGCGGAGAGGCGGCGTCAGCAGGCGGAGTCACCTAGTGCAG” is 4840 fluorescence intensity (a.u.); for “CCAAAATTACCATCTCATGACTCATTCCTTCAATCATCATCGGAGTCACCTAGTGCAG” it is 9710 fluorescence intensity (a.u.); for “CCTGAAAATATTTGGTTCAATTATTGAACTCGAGGTACCTCGGAGTCACCTAGTGCAG” it is 19100 fluorescence intensity (a.u.).

As for “TGCTCAGCTCGTCGGGACAAGGGGATCTCGTCCCGATAGGCGGAGTCACCTAGTGCAG”, the binding signal was 3300 fluorescence intensity (a.u.).

On to “ATTAATGTGGGAATTTCTAGTTCCCACAGCGAACGTGATGCGGAGTCACCTAGTGCAG”, for which the binding signal was 3550 fluorescence intensity (a.u.).

Consider “ACCGGTAAGCCCAAAAGAAAGGATAGAGAGAGCGATGGGCCGGAGTCACCTAGTGCAG”, for which the binding signal was 3320 fluorescence intensity (a.u.). Regarding “AATTTTATCATAGAACTACAGATTTAAGGTAAAATATCGCCGGAGTCACCTAGTGCAG”, the binding signal was 3220 fluorescence intensity (a.u.).

As for “CATGAAGCCAACAATGACATCATCCATCTCCATCAACTGACGGAGTCACCTAGTGCAG”, the binding signal is 4830 fluorescence intensity (a.u.).

Turning to “ATGGATTCTTGCAATCTTGATTGGTTTATAGTAGTACTTGCGGAGTCACCTAGTGCAG”, the binding signal is 3980 fluorescence intensity (a.u.). Then “TAAGAAAACTACAGCTTTATTACTCAAACTTAATATTAACCGGAGTCACCTAGTGCAG”, with 39800 fluorescence intensity (a.u.). Then “TCCTTGACTTCTCGAGAAGGGATATCGTGGCGTTTTCACCCGGAGTCACCTAGTGCAG”, with 3560 fluorescence intensity (a.u.); and “CTAAAATGGCAAAGTGACGGCGCGCTCTCCGTATTGGCATCGGAGTCACCTAGTGCAG”, with 3210 fluorescence intensity (a.u.). Then “GAGAGATAGTACAAGATGGGAGGGAGAGAGAGAGAGAGAGCGGAGTCACCTAGTGCAG”, with 4150 fluorescence intensity (a.u.); and “AACAAAATACATGTGCATCAACCATTTTGTTGCATATCACCGGAGTCACCTAGTGCAG”, with 28600 fluorescence intensity (a.u.); and “GACGCCCTTCTCGAGGAACGCCGACACGGTGCGCGGCCCCCGGAGTCACCTAGTGCAG”, with 3610 fluorescence intensity (a.u.).

As to “GGCTACAATTCCACGCTACAAATGTAAGTTGCAATACATTCGGAGTCACCTAGTGCAG”, the binding signal was 3180 fluorescence intensity (a.u.). “GTTAATATTATCCTCGTTCATTTTCACACTCTTCTAAAAGCGGAGTCACCTAGTGCAG”: the binding signal is 4700 fluorescence intensity (a.u.).

Turning to “CAGTTAATAGAATAGAAAGGTGATGTGGTCCCGCACCTGACGGAGTCACCTAGTGCAG”, the binding signal was 3570 fluorescence intensity (a.u.). In the case of “AGTAGATAGTTAGGGCGATAGCAATGCGTCACAAGTATTTCGGAGTCACCTAGTGCAG”, the binding signal was 5040 fluorescence intensity (a.u.). As to “GTATATACTTGATCTGGTACGAGTCATTATGGCCAGCTCACGGAGTCACCTAGTGCAG”, the binding signal is 4350 fluorescence intensity (a.u.). With “GTGTCACCTTTGTGCTTTGTTGGCATCAGTAGTATGGATACGGAGTCACCTAGTGCAG”, the binding signal is 3760 fluorescence intensity (a.u.). For the sequence “CCTACCTGAAAACTTCACTGCTCACTCCAGAATTCAGATACGGAGTCACCTAGTGCAG”, the binding signal was 18400 fluorescence intensity (a.u.). With “ATTGAAAAGTTTGGTTCAAATTAAAATTTTAGTAACAAAACGGAGTCACCTAGTGCAG”, the binding signal is 24300 fluorescence intensity (a.u.).

“TACCAGATGAACTCTTTCCAATAATGTGATTGCCGGTGTTCGGAGTCACCTAGTGCAG”: the binding signal is 21600 fluorescence intensity (a.u.). Take “GTCCCTATCACATCGGATGTTTGAACAAAACAGAATATACCGGAGTCACCTAGTGCAG”: the binding signal was 45600 fluorescence intensity (a.u.). Consider “AAATGGATGATAAGTATAATTACTTAGAGCAAGTTTAATACGGAGTCACCTAGTGCAG”, for which the binding signal was 65500 fluorescence intensity (a.u.). For the sequence “CCTCGGCTCCCATCCACTACCGTTTGCTACTCCGGCGCCGCGGAGTCACCTAGTGCAG”, the binding signal was 3230 fluorescence intensity (a.u.). Take “GGGGAATACGCTTCATCCATGGGTTTACGAACAGATAATACGGAGTCACCTAGTGCAG”: the binding signal was 3960 fluorescence intensity (a.u.).

Turning to “ATTTAATAGTCCGGGAGGCATGCTTACGGACAAGGACGAACGGAGTCACCTAGTGCAG”, the binding signal was 47100 fluorescence intensity (a.u.).
